In patent US20060270634A1, “Acetal phosphate-derived LPA mimics, PPARgamma activators, and autotaxin inhibitors” (priority 2005, published 2006):
At least one compound was matched to its structure with a doubt left.

Protein sequences, listed by entry. Tags and fused reporters are not part of them.
UniProt Q9HBW0, whole entry, species assumed: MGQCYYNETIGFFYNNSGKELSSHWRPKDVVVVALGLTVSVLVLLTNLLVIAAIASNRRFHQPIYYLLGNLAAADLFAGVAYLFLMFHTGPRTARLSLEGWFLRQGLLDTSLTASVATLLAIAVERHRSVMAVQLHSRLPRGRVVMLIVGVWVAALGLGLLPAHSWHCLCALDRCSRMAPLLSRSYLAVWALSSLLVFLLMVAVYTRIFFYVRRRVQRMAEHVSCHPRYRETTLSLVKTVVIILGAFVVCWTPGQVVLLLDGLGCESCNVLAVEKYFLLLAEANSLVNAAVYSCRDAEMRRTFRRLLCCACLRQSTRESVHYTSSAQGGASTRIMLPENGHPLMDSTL
UniProt Q92633, whole entry, species assumed: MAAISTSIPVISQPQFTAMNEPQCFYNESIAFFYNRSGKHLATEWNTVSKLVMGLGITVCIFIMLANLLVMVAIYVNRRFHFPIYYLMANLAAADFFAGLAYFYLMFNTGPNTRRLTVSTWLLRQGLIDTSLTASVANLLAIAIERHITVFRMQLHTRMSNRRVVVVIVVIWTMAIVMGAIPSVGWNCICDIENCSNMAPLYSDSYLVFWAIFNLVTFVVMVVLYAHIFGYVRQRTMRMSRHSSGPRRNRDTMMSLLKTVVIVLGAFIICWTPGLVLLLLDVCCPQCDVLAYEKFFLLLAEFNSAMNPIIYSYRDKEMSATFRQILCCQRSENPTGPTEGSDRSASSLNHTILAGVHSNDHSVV

What was measured:
LPA2 = LPA2 (Homo sapiens, UniProt Q9HBW0); assay: Ca2+ transients in RH7777 cells expressing LPA2 (agonist / inhibition of LPA response)
LPA1 [1] = target: T1, LPA1 (Homo sapiens, UniProt Q92633); design: expressed in transfected cells; host or cells: RH7777 rat hepatoma cells; settings: cited from earlier work
LPA1 [2] = target: T1, LPA1; assay: Ca2+ transients in RH7777 cells expressing LPA1 (agonist / inhibition of LPA response)

Structure (SMILES) | LPA2 agonist/antagonist activity in words (LPA2) | LPA2 effect in words (LPA2; *transient) | LPA1 activity in words, previously reported (LPA1 [1]) | LPA1 agonist/antagonist activity in words (LPA1 [2])
CCCCCCCCCCCCC1OCC(COP(=O)(O)O)O1 (centres unmarked) [Analog 4] | weak agonist |  |  | 
CCCCCCCCCCCCC1OCC(COP(=O)(O)O)O1 (centres unmarked) [Analog 12] |  | weak agonist |  | 
CCCCCCCC(=O)OCC(COP(=O)(O)O)OC(=O)CCCCCCC (centres unmarked) [Cpd 2, phosphatidic acid 8:0, reference compound] | no effect |  | antagonists | subtype selective antagonism
